Measured values taken from article PMC5414047.
No constants are given. Whether binding was seen depends on the method and setting. Binding seen in cells or lysates may run through a third protein. Some results given as binding are weak or reduced against the parent protein; the word gives no strength.

Chains of the proteins cited; added tags and fusions are not shown. Lines headed by an entry give the natural chain unless they say otherwise; changes in a name come on top. Residues count along the entry.
UniProt P37173, residues 23-567: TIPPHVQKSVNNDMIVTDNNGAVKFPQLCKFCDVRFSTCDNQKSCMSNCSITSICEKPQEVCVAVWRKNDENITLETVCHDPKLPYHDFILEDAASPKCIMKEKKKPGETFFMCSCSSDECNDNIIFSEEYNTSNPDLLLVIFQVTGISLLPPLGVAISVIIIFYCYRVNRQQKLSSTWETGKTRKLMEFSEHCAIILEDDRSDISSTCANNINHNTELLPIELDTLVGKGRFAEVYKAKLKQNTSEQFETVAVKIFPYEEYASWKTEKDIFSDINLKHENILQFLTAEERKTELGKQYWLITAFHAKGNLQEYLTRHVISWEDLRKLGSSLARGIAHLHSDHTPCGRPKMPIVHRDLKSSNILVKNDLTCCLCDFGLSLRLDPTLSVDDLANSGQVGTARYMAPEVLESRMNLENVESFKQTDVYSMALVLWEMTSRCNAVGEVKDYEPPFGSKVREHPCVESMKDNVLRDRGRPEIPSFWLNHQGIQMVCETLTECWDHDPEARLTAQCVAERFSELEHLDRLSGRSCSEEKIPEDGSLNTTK
UniProt Q9UNN5: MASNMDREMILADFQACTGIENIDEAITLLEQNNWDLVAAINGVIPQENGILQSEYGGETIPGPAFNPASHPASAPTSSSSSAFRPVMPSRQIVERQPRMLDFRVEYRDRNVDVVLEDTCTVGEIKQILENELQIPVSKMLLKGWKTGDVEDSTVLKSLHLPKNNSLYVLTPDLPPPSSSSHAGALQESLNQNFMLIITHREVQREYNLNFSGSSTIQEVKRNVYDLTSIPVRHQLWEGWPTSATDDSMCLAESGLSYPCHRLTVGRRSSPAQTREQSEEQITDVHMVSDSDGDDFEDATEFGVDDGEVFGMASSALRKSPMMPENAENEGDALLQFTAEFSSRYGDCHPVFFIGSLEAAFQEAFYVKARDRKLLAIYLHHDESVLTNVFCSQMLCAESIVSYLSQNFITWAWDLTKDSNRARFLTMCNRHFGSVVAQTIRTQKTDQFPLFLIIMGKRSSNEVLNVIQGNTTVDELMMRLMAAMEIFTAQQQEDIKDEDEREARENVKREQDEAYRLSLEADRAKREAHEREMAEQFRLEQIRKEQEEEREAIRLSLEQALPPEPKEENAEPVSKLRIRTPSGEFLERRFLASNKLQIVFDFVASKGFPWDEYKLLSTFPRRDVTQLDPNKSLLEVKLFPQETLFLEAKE

Legend:
[1] = target: TGF-β type II serine/threonine kinase receptor (TβRII), endogenous (human (endogenous in MCF10A-RAS and HEK293T)) (UniProt P37173); assay: co-IP; endogenous proteins, non-transfected MCF10A-RAS cells treated with NH4Cl (25 mM); limiting amounts of TβRII antibody; non-specific antibody as control
[2] = target: Flag-FAF1 from Myr-AKT-expressing cells (phosphorylated by AKT at Ser 582) (UniProt Q9UNN5); assay: co-IP; HEK293T cells transfected with Flag-FAF1 and Myr-HA-AKT; immunoprecipitants and total cell lysate immunoblotted
[3] = target: Flag-FAF1 S582A (UniProt Q9UNN5); assay: co-IP; HEK293T cells transfected with Flag-FAF1 wt/S582A/S582D; immunoprecipitants and total cell lysate immunoblotted

| Substance | binding [1] | binding [2] | binding [3] |
| --- | --- | --- | --- |
| FAS-associated factor 1 (FAF1), endogenous (from UniProt Q9UNN5 1-650) | binds | – | – |
| TGF-β type II serine/threonine kinase receptor (TβRII), endogenous (from UniProt P37173 23-567) | – | binds weakly | binds |
